From publication PMC4384708 (EJNMMI Research, 2015)
Bridge positions count the residues as written; N and C are the ends. Peptide text beside a SMILES is read from it. * marks the point of attachment. X1 = N[C@@H](CSC1CC(=O)N(CC2CCC(C(=O)*)CC2)C1=O)C(=O)NCCCC[C@@H](C(=O)O)N(CCN(CC(=O)O)CC(=O)O)CCN(CC(=O)O)CC(=O)O

Test system: angiogenic active endothelium
Experiment: Matrigel plug model, gamma counting of explanted Matrigels
Format: in vivo, Swiss mice
Conditions: corrected for ID and weight

CC(=O)N[C@H]1CSSC[C@@H](C(=O)NCC(=O)NCC(=O)N[C@@H](CCCCNC(=O)C2CCC(CN3C(=O)CC(SC[C@H](N)C(=O)NCCCC[C@@H](C(=O)O)N(CCN(CC(=O)O)CC(=O)O)CCN(CC(=O)O)CC(=O)O)C3=O)CC2)C(N)=O)NC(=O)[C@H](CCCNC(=N)N)NC(=O)CNC(=O)[C@H](CC(N)=O)NC1=O (some centres unmarked) [^111In-DTPA-cNGR, metal not drawn] (Ac-CNGRCGGK(X1)-NH2; disulfide 1-5)
uptake ratio hFGF2 supplemented vs. non-hFGF2 supplemented Matrigel: 1.8
uptake ratio hFGF2 supplemented Matrigel vs. muscle (hind limb muscle as reference): 3.1
